This is an account of results in paper doi:10.1101/2024.06.23.24309370.

Amino acid sequences for entries named in this document (tags omitted).
UniProt Q9Y2T7: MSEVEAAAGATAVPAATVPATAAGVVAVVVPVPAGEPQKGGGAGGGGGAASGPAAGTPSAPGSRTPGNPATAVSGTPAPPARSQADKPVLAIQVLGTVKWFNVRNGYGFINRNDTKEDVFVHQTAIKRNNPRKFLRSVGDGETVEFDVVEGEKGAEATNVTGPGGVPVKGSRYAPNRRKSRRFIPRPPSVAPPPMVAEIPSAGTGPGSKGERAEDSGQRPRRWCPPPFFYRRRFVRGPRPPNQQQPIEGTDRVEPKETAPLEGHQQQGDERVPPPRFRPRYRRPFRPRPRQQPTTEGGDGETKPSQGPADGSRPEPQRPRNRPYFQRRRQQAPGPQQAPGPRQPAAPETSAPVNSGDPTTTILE
UniProt Q15365: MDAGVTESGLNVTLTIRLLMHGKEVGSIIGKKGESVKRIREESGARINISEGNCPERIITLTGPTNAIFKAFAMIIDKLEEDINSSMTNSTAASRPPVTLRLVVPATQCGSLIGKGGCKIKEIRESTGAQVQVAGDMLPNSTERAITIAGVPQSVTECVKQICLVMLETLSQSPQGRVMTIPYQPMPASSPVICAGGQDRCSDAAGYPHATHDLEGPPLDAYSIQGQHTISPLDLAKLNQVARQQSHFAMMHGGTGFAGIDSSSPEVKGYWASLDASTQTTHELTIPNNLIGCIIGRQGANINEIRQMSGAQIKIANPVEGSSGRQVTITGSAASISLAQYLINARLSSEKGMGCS
UniProt Q15366: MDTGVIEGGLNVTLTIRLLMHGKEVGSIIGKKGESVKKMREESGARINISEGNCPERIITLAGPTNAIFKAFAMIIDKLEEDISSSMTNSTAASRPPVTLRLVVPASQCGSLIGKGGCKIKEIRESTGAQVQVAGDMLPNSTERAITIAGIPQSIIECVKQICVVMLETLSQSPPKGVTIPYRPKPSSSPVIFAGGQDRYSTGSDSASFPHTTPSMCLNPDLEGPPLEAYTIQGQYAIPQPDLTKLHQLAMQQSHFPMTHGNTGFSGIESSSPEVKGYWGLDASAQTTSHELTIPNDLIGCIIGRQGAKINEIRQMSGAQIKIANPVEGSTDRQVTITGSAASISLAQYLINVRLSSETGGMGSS
UniProt P67809: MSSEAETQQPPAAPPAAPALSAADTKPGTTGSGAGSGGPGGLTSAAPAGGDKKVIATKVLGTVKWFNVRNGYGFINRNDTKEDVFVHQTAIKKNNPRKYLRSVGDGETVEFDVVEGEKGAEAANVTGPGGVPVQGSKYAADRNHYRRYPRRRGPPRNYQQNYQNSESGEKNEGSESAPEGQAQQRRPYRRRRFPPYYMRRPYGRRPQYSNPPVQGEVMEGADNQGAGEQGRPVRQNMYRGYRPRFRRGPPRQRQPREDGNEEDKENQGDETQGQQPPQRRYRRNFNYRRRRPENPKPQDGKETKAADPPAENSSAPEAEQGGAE
UniProt P31749: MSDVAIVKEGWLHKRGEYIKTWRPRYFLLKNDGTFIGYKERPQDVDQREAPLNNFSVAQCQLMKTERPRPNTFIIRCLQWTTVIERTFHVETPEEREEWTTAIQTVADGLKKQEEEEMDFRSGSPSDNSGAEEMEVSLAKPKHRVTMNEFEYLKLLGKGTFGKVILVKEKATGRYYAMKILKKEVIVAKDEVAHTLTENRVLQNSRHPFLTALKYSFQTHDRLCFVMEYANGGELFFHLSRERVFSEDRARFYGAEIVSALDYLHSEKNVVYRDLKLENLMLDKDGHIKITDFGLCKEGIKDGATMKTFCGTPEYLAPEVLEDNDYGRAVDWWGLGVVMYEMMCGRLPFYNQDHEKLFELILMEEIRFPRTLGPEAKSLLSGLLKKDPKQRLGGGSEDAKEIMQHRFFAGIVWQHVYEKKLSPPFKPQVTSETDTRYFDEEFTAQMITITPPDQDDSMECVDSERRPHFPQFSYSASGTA
UniProt Q9Y243: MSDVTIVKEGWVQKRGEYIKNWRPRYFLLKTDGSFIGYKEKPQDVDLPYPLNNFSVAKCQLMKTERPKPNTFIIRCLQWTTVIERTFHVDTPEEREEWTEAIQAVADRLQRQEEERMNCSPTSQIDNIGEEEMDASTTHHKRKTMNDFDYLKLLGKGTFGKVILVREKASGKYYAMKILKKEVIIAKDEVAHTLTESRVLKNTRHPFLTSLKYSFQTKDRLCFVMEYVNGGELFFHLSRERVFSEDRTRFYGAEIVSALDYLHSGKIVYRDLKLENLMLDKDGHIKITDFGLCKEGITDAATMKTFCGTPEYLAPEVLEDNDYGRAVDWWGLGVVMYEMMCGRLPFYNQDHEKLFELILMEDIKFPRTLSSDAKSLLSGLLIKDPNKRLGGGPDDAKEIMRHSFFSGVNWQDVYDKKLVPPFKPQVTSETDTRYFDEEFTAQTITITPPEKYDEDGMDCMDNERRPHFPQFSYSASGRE
UniProt P31751: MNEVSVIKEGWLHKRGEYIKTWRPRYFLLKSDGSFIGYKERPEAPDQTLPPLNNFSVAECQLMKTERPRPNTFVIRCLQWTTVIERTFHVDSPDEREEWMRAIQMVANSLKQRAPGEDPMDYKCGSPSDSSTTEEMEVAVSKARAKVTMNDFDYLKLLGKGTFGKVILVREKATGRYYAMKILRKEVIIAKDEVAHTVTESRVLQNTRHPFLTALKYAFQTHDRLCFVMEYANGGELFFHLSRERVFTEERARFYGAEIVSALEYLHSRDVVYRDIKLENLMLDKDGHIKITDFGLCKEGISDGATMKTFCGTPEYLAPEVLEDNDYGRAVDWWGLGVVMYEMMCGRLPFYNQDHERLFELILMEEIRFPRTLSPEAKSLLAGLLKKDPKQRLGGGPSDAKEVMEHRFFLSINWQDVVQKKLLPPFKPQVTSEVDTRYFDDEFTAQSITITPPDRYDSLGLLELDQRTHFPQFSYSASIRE
UniProt Q16665: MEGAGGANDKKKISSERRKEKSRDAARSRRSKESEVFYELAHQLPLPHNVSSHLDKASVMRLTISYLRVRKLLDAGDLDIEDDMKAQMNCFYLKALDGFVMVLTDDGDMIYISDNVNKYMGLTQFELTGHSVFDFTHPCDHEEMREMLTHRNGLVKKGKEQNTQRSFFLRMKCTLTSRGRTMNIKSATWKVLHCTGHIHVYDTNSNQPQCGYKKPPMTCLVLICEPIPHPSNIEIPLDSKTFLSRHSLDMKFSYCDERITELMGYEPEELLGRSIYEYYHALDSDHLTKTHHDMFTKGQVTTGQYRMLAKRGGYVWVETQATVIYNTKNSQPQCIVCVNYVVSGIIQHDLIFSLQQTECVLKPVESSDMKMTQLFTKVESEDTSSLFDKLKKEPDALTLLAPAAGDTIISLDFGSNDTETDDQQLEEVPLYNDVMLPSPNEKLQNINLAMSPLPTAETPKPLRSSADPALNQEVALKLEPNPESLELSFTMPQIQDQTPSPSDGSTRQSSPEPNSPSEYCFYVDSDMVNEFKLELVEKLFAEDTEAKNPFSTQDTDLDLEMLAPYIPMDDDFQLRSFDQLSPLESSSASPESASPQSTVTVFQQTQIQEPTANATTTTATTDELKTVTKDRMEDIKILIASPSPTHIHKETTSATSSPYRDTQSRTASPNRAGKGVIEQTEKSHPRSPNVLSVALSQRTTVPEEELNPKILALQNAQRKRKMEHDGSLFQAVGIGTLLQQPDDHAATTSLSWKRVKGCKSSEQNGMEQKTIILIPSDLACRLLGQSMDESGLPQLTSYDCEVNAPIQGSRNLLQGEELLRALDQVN

Results are given in words; binding and its absence hold for the method and conditions named. In cells and extracts the contact can be indirect. Some results given as binding are weak or reduced against the parent protein; the word gives no strength.

Some targets named below: YBX2 (UniProt Q9Y2T7); PCBP1 (UniProt Q15365); PCBP2 (UniProt Q15366).
Common to all, as to assay: co-IP
For assay [1], the target named is 3×FLAG-YBX1 (Y-box binding protein 1) (UniProt P67809).
Assay [2] concerns the target YBX1 (as used in the co-IP with HIF1ɑ) (UniProt P67809).

In the case of “AKT1-HA (from UniProt P31749 1-480) (enzyme)”, in assay [1], the binding result is “binds”.

As to “AKT3 (from UniProt Q9Y243 1-479) (enzyme)”, the binding result in assay [1] is on record as “no binding”.

As for “AKT2 (from UniProt P31751 1-481) (enzyme)”, in assay [1], the binding entry is reported as “no binding”.

“hypoxia inducible factor 1 subunit alpha (HIF1ɑ) (from UniProt Q16665 1-826)”: the binding entry (with YBX2; in assay [2]; with PCBP1; with PCBP2) was “no binding” throughout.
